Source: patent publication US10925880B2, “Combination of PI3K-inhibitors” (BAYER PHARMA AKTIENGESELLSCHAFT, priority 2016, dated 2021)
For at least one compound, name, drawing or mass did not settle the structure.

Assays:
Type in all cases: cell-based
[1] = system: Mantle Cell Lymphoma (MCL), Marginal zone lymphoma (MZL) and Splenic marginal zone lymphoma (SMZL) cell lines; test: 72-hour cell proliferation assay, summary over the cell line panel; settings: ten MCL, three MZL and three SMZL cell lines, range over panel
Method: (§1) Combinations of Copanlisib and ABT-199 or Palbociclib in a Panel Cell Lines Assessed by the Combination Index (CI) of a 72-Hour Cell Proliferation Assay The effect of combinations of the present invention was evaluated using combination index isobologram analysis for in vitro assessment. The efficacy parameter was the effect in a 72-hour cell proliferation assay. Briefly, 3000 cells were plated in 384-well plates with appropriate growth medium. […] Cells were treated for 72 hours followed by assessment of cell viability by means of Cell Titer Glo assay (Promega). Experiments were conducted in duplicates. The mapping IC50 values were calculated. The corresponding component concentrations of copanlisib and ABT-199 or Palbociclib were calculated and used for plotting isobolograms. Effects were analyzed as described by Chou (Pharmacology Reviews 2006) and the combination index was calculated using the formula: Combination Index=[Ax]/A′+[Bx]/B′ [Ax] and [Bx] refer to component A and component B. A′ and B′ refer to the IC50 values of A and B, respectively, as a single agent. […] Cis of 0.9-1.1 were defined as additive effect. Cis greater than 1.1 were defined as antagonistic effects.

[2] = system: ESKOL; test: 72-hour cell proliferation assay (Cell Titer Glo); settings: ESKOL (MZL), single agent
Method: as §1

[3] = system: JEKO-1; test: 72-hour cell proliferation assay (Cell Titer Glo); settings: JEKO-1 (MCL), single agent
Method: as §1

[4] = system: SP-49; test: 72-hour cell proliferation assay (Cell Titer Glo); settings: SP-49 (MCL), single agent
Method: as §1

[5] = system: MAVER-1; test: 72-hour cell proliferation assay (Cell Titer Glo); settings: MAVER-1 (MCL), single agent
Method: as §1

[6] = system: MINO; test: 72-hour cell proliferation assay (Cell Titer Glo); settings: MINO (MCL), single agent
Method: as §1

[7] = system: JVM-2; test: 72-hour cell proliferation assay (Cell Titer Glo); settings: JVM-2 (MCL), single agent
Method: as §1

[8] = system: Z-138; test: 72-hour cell proliferation assay (Cell Titer Glo); settings: Z-138 (MCL), single agent
Method: as §1

[9] = system: VL51; test: 72-hour cell proliferation assay (Cell Titer Glo); settings: VL51 (SMZL), single agent
Method: as §1

[10] = system: GRANTA-519; test: 72-hour cell proliferation assay (Cell Titer Glo); settings: GRANTA-519 (MCL), single agent
Method: as §1

[11] = system: HAIR-M; test: 72-hour cell proliferation assay (Cell Titer Glo); settings: HAIR-M (MZL), single agent
Method: as §1

[12] = system: KARPAS-1718; test: 72-hour cell proliferation assay (Cell Titer Glo); settings: KARPAS-1718 (SMZL), single agent
Method: as §1

[13] = system: SSK41; test: 72-hour cell proliferation assay (Cell Titer Glo); settings: SSK41 (SMZL), single agent
Method: as §1

[14] = system: UPN1; test: 72-hour cell proliferation assay (Cell Titer Glo); settings: UPN-1 (MCL), single agent
Method: as §1

[15] = system: HC-1; test: 72-hour cell proliferation assay (Cell Titer Glo); settings: HC-1 (MZL), single agent
Method: as §1

[16] = system: SP-53; test: 72-hour cell proliferation assay (Cell Titer Glo); settings: SP-53 (MCL), single agent
Method: as §1

[17] = system: REC-1; test: 72-hour cell proliferation assay (Cell Titer Glo); settings: REC-1 (MCL), single agent
Method: as §1

Q: How did the monotherapy anti-proliferative activity [1] turn out when `CC(=O)c1c(C)c2cnc(Nc3ccc(N4CCNCC4)cn3)nc2n(C2CCCC2)c1=O` [palbociclib] was run?
A: Its monotherapy anti-proliferative activity is “moderate to no”.

Q: And the monotherapy anti-proliferative activity [2]?
A: Its monotherapy anti-proliferative activity is “weak”.

Q: And the monotherapy anti-proliferative activity [3]?
A: Its monotherapy anti-proliferative activity is “moderate”.

Q: And the monotherapy anti-proliferative activity [4]?
A: The monotherapy anti-proliferative activity was “weak”.

Q: And the monotherapy anti-proliferative activity [5]?
A: The monotherapy anti-proliferative activity was “weak”.

Q: What about the monotherapy anti-proliferative activity [6] of the same compound?
A: The monotherapy anti-proliferative activity was “weak”.

Q: And the monotherapy anti-proliferative activity [7]?
A: The monotherapy anti-proliferative activity was “weak”.

Q: And the monotherapy anti-proliferative activity [8]?
A: Its monotherapy anti-proliferative activity is “weak”.

Q: What about the monotherapy anti-proliferative activity [9] of the same compound?
A: The monotherapy anti-proliferative activity was “no”.

Q: And the monotherapy anti-proliferative activity [10]?
A: Its monotherapy anti-proliferative activity is “no”.

Q: And the monotherapy anti-proliferative activity [11]?
A: The monotherapy anti-proliferative activity was “weak”.

Q: What about the monotherapy anti-proliferative activity [12] of the same compound?
A: Its monotherapy anti-proliferative activity is “weak”.

Q: And the monotherapy anti-proliferative activity [13]?
A: The monotherapy anti-proliferative activity was “weak”.

Q: And the monotherapy anti-proliferative activity [14]?
A: The monotherapy anti-proliferative activity was “weak”.

Q: What about the monotherapy anti-proliferative activity [15] of the same compound?
A: The monotherapy anti-proliferative activity was “weak”.

Q: And the monotherapy anti-proliferative activity [16]?
A: The monotherapy anti-proliferative activity was “strong”.

Q: What about the monotherapy anti-proliferative activity [17] of the same compound?
A: The monotherapy anti-proliferative activity was “weak”.

Q: What does the source list for `CC1(C)CCC(CN2CCN(c3ccc(C(=O)NS(=O)(=O)c4ccc(NCC5CCOCC5)c([N+](=O)[O-])c4)c(Oc4cnc5[nH]ccc5c4)c3)CC2)=C(c2ccc(Cl)cc2)C1` [venetoclax]?
A: monotherapy anti-proliferative activity [1]: very strong to no; monotherapy anti-proliferative activity [2]: no; monotherapy anti-proliferative activity [3]: weak; monotherapy anti-proliferative activity [4]: weak; monotherapy anti-proliferative activity [5]: very strong; monotherapy anti-proliferative activity [6]: very strong; monotherapy anti-proliferative activity [7]: weak; monotherapy anti-proliferative activity [8]: weak; monotherapy anti-proliferative activity [9]: weak; monotherapy anti-proliferative activity [10]: strong; monotherapy anti-proliferative activity [11]: moderate; monotherapy anti-proliferative activity [12]: very strong; monotherapy anti-proliferative activity [13]: weak; monotherapy anti-proliferative activity [14]: no; monotherapy anti-proliferative activity [15]: no; monotherapy anti-proliferative activity [16]: no; monotherapy anti-proliferative activity [17]: strong
